For some assays here: The comparison behind a weaker result is the experiment's own reference, which may not be listed here. Tags and fusion partners may be left off the protein sequences shown. Construct, isoform or probe ends are uncertain for at least one entry. For some assays here: At least one verdict rests on a figure or table, not on a statement of the authors.
Legend:
Assay in all cases: EMSA
[1] = molecular target: T1, TraI helicase domain (TraI-H) (UniProt D9Z5Q2); conditions: low affinity, EMSA: 50 nM FITC-DNA, 0-1600 nM protein, 25 mM Hepes-NaOH pH 7.0, 300 mM NaCl, room temperature 15 min, 5% PAGE, 0.75x TBE, 4 C, recombinant protein, residues 429-910, protein details: 10xHis with 3C site, cleaved off
T1 sequence (looked up): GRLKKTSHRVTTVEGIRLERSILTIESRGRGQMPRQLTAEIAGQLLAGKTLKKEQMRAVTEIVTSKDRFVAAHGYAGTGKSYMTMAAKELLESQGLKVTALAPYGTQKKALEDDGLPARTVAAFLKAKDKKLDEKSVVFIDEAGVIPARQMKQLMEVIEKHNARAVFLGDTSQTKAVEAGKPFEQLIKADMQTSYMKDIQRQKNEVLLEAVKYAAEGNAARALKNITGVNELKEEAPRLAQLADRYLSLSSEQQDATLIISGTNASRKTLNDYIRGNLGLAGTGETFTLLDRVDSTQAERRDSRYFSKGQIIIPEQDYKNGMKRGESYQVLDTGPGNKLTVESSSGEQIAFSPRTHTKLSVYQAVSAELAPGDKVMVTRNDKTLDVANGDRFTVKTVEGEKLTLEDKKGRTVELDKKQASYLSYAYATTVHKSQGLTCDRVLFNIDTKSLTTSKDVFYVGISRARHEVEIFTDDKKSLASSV

TraI full-length = molecular target: T2, TraI full-length (UniProt D9Z5Q2); conditions: EMSA: 50 nM FITC-DNA, 0-1600 nM protein, 25 mM Hepes-NaOH pH 7.0, 300 mM NaCl, room temperature 15 min; 5% PAGE, 0.75x TBE, 4 C; recombinant protein; protein details: 10xHis with 3C site, cleaved off; label: 5' FITC; single-stranded DNA
T2 sequence (looked up, limits assumed): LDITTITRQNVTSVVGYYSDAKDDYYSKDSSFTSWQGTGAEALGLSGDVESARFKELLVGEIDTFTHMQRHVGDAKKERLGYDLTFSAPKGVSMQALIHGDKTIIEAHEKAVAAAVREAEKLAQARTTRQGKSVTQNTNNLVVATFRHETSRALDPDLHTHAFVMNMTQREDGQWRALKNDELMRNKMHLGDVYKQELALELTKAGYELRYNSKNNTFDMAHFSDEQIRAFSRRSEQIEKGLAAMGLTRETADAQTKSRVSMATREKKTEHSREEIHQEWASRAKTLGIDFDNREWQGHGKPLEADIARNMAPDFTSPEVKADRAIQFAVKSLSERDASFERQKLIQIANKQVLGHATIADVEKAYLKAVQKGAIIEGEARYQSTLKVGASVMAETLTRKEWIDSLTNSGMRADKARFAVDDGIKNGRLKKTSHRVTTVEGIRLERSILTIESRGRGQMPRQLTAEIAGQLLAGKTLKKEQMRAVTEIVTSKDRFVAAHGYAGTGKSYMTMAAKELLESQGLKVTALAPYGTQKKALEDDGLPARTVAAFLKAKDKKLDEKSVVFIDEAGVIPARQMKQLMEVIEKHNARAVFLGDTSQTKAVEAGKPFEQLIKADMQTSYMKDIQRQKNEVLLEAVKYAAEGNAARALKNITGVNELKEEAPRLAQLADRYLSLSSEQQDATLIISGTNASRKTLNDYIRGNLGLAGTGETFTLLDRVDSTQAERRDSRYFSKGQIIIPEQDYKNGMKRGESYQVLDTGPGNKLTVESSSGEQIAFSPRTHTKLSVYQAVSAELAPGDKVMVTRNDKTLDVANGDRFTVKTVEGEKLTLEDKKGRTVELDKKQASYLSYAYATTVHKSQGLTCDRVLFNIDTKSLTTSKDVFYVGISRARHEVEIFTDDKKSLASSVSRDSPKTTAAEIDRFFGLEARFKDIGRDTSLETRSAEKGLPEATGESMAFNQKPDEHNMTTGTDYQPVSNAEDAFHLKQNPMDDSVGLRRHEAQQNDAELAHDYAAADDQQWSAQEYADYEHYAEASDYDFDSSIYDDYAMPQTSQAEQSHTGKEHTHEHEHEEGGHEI

[2] = molecular target: T3, TraI trans-esterase domain (TraI-TE) (UniProt D9Z5Q2); conditions: interaction only above 800 or 1600 nM (which DNA not specified), EMSA: 50 nM FITC-DNA, 0-1600 nM protein, 25 mM Hepes-NaOH pH 7.0, 300 mM NaCl, room temperature 15 min, 5% PAGE, 0.75x TBE, 4 C, recombinant protein, residues 1-299, protein details: 10xHis with 3C site, cleaved off, single-stranded DNA
T3 sequence (looked up): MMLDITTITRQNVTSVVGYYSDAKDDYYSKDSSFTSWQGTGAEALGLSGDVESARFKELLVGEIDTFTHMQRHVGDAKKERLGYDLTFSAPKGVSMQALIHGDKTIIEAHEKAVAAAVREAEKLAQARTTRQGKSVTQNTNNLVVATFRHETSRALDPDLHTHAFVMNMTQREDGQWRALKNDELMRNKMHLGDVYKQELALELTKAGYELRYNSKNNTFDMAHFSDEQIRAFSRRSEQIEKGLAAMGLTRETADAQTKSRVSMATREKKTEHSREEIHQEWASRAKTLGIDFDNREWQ

TGTGATAGCGTGATTTATCGCGCTGCGTTAGGTGTATAGCAGGTTAAGGGATAAAAA [F-oriT57]
binding result ([1]; no sequence specificity, label: 5' FITC, folded or branched DNA): binds more weakly

TCCGCCATGCAGACGAGACCAGTCGGAGATTACCGAGCATTCTATCAGGTCGGCGAC [F-Random57]
binding result ([1]; 400 nM needed for significant shift, label: 5' FITC, single-stranded DNA): binds more weakly

TGTGATAGCGTGATTTATCGCGCTGCGTTAGGTGT [F-oriT35]
binding result ([1]; weaker than with 57-mer, label: 5' FITC, folded or branched DNA): binds more weakly

CACTAGTGAGCTACTGGAGCCGAGGGGTAACCACG [F-Random35]
binding result (TraI full-length): binds
binding result ([1]; weaker than with 57-mer, label: 5' FITC, single-stranded DNA): binds more weakly
half-maximal binding ([2]; label: 5' FITC): > 800 nM

ATAGCAGGTTAAGGGATAAAAA [oriT22-F]
binding result ([1]; weaker than with 57-mer, label: 3' FITC, single-stranded DNA): binds more weakly
half-maximal binding ([2]; label: 3' FITC): > 800 nM

Reference: publication PMC9868005, “Structural and functional characterization of TraI from pKM101 reveals basis for DNA processing”
